Experimental data as given in patent US7923573B2, “Benzene compound having 2 or more substituents” (Daiichi Sankyo Company, Limited, priority 2004, dated 2011).
Some of these results come from one statement about several compounds together.

Target: T1, LXRβ (Homo sapiens, UniProt P55055)
T1 construct: expressed in transfected cells; host or cells: CV-1 African green monkey kidney cells (ATCC CCL-70)
T1 sequence (P55055 1-460): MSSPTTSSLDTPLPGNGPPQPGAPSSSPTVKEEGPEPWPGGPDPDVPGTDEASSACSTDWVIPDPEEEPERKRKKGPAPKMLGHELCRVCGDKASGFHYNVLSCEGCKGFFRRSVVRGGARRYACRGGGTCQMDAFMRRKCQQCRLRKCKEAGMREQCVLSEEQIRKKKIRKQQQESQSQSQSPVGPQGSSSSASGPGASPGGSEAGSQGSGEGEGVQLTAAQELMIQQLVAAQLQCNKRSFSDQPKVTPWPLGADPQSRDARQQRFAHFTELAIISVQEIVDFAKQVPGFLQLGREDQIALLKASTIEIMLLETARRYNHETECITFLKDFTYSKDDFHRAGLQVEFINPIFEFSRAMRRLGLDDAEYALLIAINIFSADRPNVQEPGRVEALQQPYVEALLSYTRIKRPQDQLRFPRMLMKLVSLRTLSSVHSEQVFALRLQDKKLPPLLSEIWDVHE
T1 sequence (P19793 1-462 partner): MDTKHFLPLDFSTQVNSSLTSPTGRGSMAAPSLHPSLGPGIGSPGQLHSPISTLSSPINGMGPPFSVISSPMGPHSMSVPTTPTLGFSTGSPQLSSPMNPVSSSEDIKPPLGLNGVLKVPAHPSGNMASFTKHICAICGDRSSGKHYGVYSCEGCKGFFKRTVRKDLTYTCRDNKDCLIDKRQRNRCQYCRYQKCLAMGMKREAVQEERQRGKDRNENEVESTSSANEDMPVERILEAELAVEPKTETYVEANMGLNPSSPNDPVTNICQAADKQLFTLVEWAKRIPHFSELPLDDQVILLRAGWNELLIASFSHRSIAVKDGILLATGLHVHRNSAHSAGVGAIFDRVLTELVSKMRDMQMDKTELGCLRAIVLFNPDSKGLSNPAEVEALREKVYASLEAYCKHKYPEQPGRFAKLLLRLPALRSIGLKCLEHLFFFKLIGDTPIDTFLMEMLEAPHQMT
Experiment: Co-transfection assay (LXR/LXRE luciferase reporter), LXRβ
Format: cell-based
Conditions: CV-1 cells transfected with hLXRβ and LXRE luciferase reporter; agonist activity; read-out: EC50 value against LXRβ

SMILES	EC50 [µM]
CC(C(=O)O)c1ccc(-c2ccc(OCc3ccc(C(F)(F)F)c(O)c3C(=O)OC(C)(C)C)cc2)cc1Cl (stereo not shown) [Example 97, 2-(4′-{[2-(tert-Butoxycarbonyl)-3-hydroxy-4-(trifluoromethyl)benzyl]oxy}-3-chloro-1,1′-biphenyl-4-yl)propanoic acid]	≤ 3
Cc1c(-c2ccc(OCc3ccc(C(F)(F)F)c(O)c3C(=O)OC(C)(C)C)cc2)cccc1C(C)C(=O)O (stereo not shown) [Example 98, 2-(4′-{[2-(tert-Butoxycarbonyl)-3-hydroxy-4-(trifluoromethyl)benzyl]oxy}-2-methyl-1,1′-biphenyl-3-yl)propanoic acid]	≤ 3
CCc1c(-c2ccc(OCc3ccc(C(F)(F)F)c(O)c3C(=O)OC(C)(C)C)cc2)cccc1C(C)C(=O)O (stereo not shown) [Example 99, 2-(4′-{[2-(tert-Butoxycarbonyl)-3-hydroxy-4-(trifluoromethyl)benzyl]oxy}-2-ethyl-1,1′-biphenyl-3-yl)propanoic acid]	≤ 3
CC(C(=O)O)c1ccc(-c2ccc(OCc3ccc(C(F)(F)F)c(O)c3C(=O)OC(C)(C)C)cc2)cc1F (stereo not shown) [Example 100, 2-(4′-{[2-(tert-Butoxycarbonyl)-3-hydroxy-4-(trifluoromethyl)benzyl]oxy}-3-fluoro-1,1′-biphenyl-4-yl)propanoic acid]	≤ 3
CC(C(=O)O)c1ccc(-c2ccc(OCc3ccc(C(F)(F)F)c(O)c3C(=O)OC(C)(C)C)cc2)c([N+](=O)[O-])c1 (stereo not shown) [Example 101, 2-(4′-{[2-(tert-Butoxycarbonyl)-3-hydroxy-4-(trifluoromethyl)benzyl]oxy}-2-nitro-1,1′-biphenyl-4-yl)propanoic acid]	≤ 3
Cc1cc(C(C)C(=O)O)ccc1-c1ccc(OCc2ccc(C(F)(F)F)c(O)c2C(=O)OC(C)(C)C)cn1 (stereo not shown) [Example 102, 2-[4-(5-{[2-(tert-Butoxycarbonyl)-3-hydroxy-4-(trifluoromethyl)benzyl]oxy}-2-pyridinyl)-3-methylphenyl]propanoic acid]	≤ 3
CCc1cc(-c2ccc(OCc3ccc(C(F)(F)F)c(O)c3C(=O)OC(C)(C)C)cc2)ccc1C(C)C(=O)O (stereo not shown) [Example 103, 2-(4′-{[2-(tert-Butoxycarbonyl)-3-hydroxy-4-(trifluoromethyl)benzyl]oxy}-3-ethyl-1,1′-biphenyl-4-yl)propanoic acid]	≤ 3
Cc1cc(C(C)C(=O)O)c(C)cc1-c1ccc(OCc2ccc(C(F)(F)F)c(O)c2C(=O)OC(C)(C)C)cc1 (stereo not shown) [Example 104, 2-(4′-{[2-(tert-Butoxycarbonyl)-3-hydroxy-4-(trifluoromethyl)benzyl]oxy}-2,5-dimethyl-1,1′-biphenyl-4-yl)propanoic acid]	≤ 3
Cc1cc(-c2ccc(OCc3ccc(C(F)(F)F)c(O)c3C(=O)OC(C)(C)C)cc2)c(C)cc1CC(=O)O [Example 105, (4′-{[2-(tert-Butoxycarbonyl)-3-hydroxy-4-(trifluoromethyl)benzyl]oxy}-2,5-dimethyl-1,1′-biphenyl-4-yl)acetic acid]	≤ 3
CC(C(=O)O)c1ccc(-c2ccc(OCc3ccc(C(F)(F)F)c(O)c3C(=O)OC(C)(C)C)cc2)c(Cl)c1 (stereo not shown) [Example 106, 2-(4′-{[2-(tert-Butoxycarbonyl)-3-hydroxy-4-(trifluoromethyl)benzyl]oxy}-2-chloro-1,1′-biphenyl-4-yl)propanoic acid]	≤ 3
Cc1cc(C(C)C(=O)O)ccc1-c1ccc(OCc2ccc(C(F)(F)F)c(O)c2C(=O)OC(C)(C)C)cc1 (stereo not shown) [Example 107, 2-(4′-{[2-(tert-Butoxycarbonyl)-3-hydroxy-4-(trifluoromethyl)benzyl]oxy}-2-methyl-1,1′-biphenyl-4-yl)propanoic acid]	≤ 3
CC(C(=O)O)c1ccc(-c2ccc(OCc3ccc(C(F)(F)F)c(O)c3C(=O)OC(C)(C)C)cc2)c(C(F)(F)F)c1 (stereo not shown) [Example 108]	≤ 3
CC(C)c1cc(C(C)C(=O)O)ccc1-c1ccc(OCc2ccc(C(F)(F)F)c(O)c2C(=O)OC(C)(C)C)cc1 (stereo not shown) [Example 109, 2-(4′-{[2-(tert-Butoxycarbonyl)-3-hydroxy-4-(trifluoromethyl)benzyl]oxy}-2-isopropyl-1,1′-biphenyl-4-yl)propanoic acid]	≤ 3
CC(C(=O)O)c1ccc(-c2ccc(OCc3ccc(C(F)(F)F)c(O)c3C(=O)OC(C)(C)C)cc2)c(F)c1F (stereo not shown) [Example 110, 2-(4′-{[2-(tert-Butoxycarbonyl)-3-hydroxy-4-(trifluoromethyl)benzyl]oxy}-2,3-difluoro-1,1′-biphenyl-4-yl)propanoic acid]	≤ 3
Cc1c(-c2ccc(OCc3ccc(C(F)(F)F)c(O)c3C(=O)OC(C)(C)C)cc2)ccc(C(C)C(=O)O)c1C (stereo not shown) [Example 111, 2-(4′-{[2-(tert-Butoxycarbonyl)-3-hydroxy-4-(trifluoromethyl)benzyl]oxy}-2,3-dimethyl-1,1′-biphenyl-4-yl)propanoic acid]	≤ 3
CC(C(=O)O)c1ccc(-c2ccc(OCc3ccc(C(F)(F)F)c(O)c3C(=O)OC(C)(C)C)cc2)c(C2CC2)c1 (stereo not shown) [Example 112, 2-(4′-{[2-(tert-Butoxycarbonyl)-3-hydroxy-4-(trifluoromethyl)benzyl]oxy}-2-cyclopropyl-1,1′-biphenyl-4-yl)propanoic acid]	≤ 3
CCC(C(=O)O)c1ccc(-c2ccc(OCc3ccc(C(F)(F)F)c(O)c3C(=O)OC(C)(C)C)cc2)cc1 (stereo not shown) [Example 113, 2-[4′-{[2-(tert-Butoxycarbonyl)-3-hydroxy-4-(trifluoromethyl)benzyl]oxy}-1,1′-biphenyl-4-yl]butanoic acid]	≤ 3
COc1c(CC(=O)O)cccc1-c1ccc(OCc2ccc(C(F)(F)F)c(O)c2C(=O)OC(C)(C)C)cc1 [Example 114, (4′-{[2-(tert-Butoxycarbonyl)-3-hydroxy-4-(trifluoromethyl)benzyl]oxy}-2-methoxy-1,1′-biphenyl-3-yl)acetic acid]	≤ 3
COc1c(-c2ccc(OCc3ccc(C(F)(F)F)c(O)c3C(=O)OC(C)(C)C)cc2)cccc1C(C)C(=O)O (stereo not shown) [Example 115, 2-(4′-{[2-(tert-Butoxycarbonyl)-3-hydroxy-4-(trifluoromethyl)benzyl]oxy}-2-methoxy-1,1′-biphenyl-3-yl)propanoic acid]	≤ 3
